Experimental data reported in PubChem BioAssay AID504467 (National Center for Advancing Translational Sciences (NCATS), 2011).
In all, about 330,000 compounds went through this assay and about 7,700 (2.3%) were called active. The inconclusive results got no clear call from the source; some entries with a clear call stand among them for comparison. Calls follow the shape of the dose curve; as a rule, active = well fitted inhibition curve with a large enough effect; inconclusive = small, poorly fitted or top-dose-only effect, or effect the other way; inactive = flat fitted curve, though single readings scatter. A potency beside an inconclusive call is a rough fit, not a confirmed value.

Test: qHTS screen for small molecules that inhibit ELG1-dependent DNA repair in human embryonic kidney (HEK293T) cells expressing luciferase-tagged ELG1; also: nearly all actives have a fitted effect of over 55% in size
Settings: HEK293T ELG1-luciferase reporter, luminescence, 16 h, DNA damage induced by 5-fluorouridine; series mostly up to 46.1 µM
Outline: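 HEK293T cells expressing luciferase-tagged ELG1 (2,000/well) received 5-Fluorouridine plus compound or DMSO for 16 hr at 37 °C. Luciferase was read by ONE-Glo luminescence after 30 min at room temperature.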
Potency is read from the fitted curve at half-maximal effect.

Row | Compound | Potency
1 | CN1CCN(C2=C(Cl)C(=O)N(c3ccc(Cl)cc3)C2=O)CC1 | inconclusive: 20.6 µM [activator, partial curve, poor fit]
2 | COc1ccc(-c2cc(CNS(=O)(=O)c3ccccc3)on2)cc1 | inactive
3 | Oc1c(C=C2N=c3ccccc3=N2)sc(=S)n1-c1ccccc1 | inactive
4 | Cc1ccc(C(=O)CSc2nnc(COc3cccc4cccnc34)o2)cc1 | inconclusive: 16.4 µM [inhibitor, single point]
5 | CCC(C)(C)n1nnnc1CN1CCN(C(c2ccccc2)c2ccccc2)CC1 | active: 20.6 µM
6 | C/C(=N\NC(=O)c1ccco1)c1ccc(-c2ccccc2)cc1 | inconclusive: 29.1 µM [activator, single point]
7 | COc1ccc(/C=C/C(=O)Nc2ccccc2F)cc1S(=O)(=O)N1CCOCC1 | inconclusive: 18.3 µM [inhibitor, partial curve, poor fit]
8 | CCCCCC1CCC(C(=O)NCCN2CCOCC2)CC1 (stereo unspecified) | inactive
9 | Cn1c(Cc2c[nH]c3ccccc23)n[nH]c1=S | inconclusive: 20.6 µM [activator, partial curve, poor fit]
10 | Fc1ccc(CNn2cnnc2SCc2ccc(F)cc2)cc1 | inconclusive: 23.1 µM [inhibitor, single point]
11 | COCCNC(=O)c1onc(CSc2ccc(F)cc2)c1C(=O)NCCOC | inconclusive: 9.2 µM [activator, partial curve, poor fit]
12 | O=C(N/N=C/c1ccc2c(c1)OCO2)c1cccnc1 | inconclusive: 20.6 µM [activator, single point]
13 | CCOC(=O)/C(C#N)=C/c1cccc(F)c1 | inconclusive: 8.2 µM [activator, partial curve, poor fit]
14 | COc1cccc(-c2csc(N3CCN(CC(=O)NNC(=O)c4ccc(Br)cc4)CC3)n2)c1 | inconclusive: 18.4 µM [inhibitor, single point]
15 | COc1ccc2nc(NC(=O)CN(c3ccc(C)cc3)S(=O)(=O)c3c(C)nn(C)c3C)sc2c1 | active: 23.1 µM
16 | Cc1cccc(C(C)C)c1NC(=O)CSc1ncnc2[nH]ncc12 | inconclusive: 9.2 µM [inhibitor, single point]
17 | CN(C)N=C1c2cc(S(=O)(=O)N3CCOCC3)ccc2-c2ccc(S(=O)(=O)N3CCOCC3)cc21 | inconclusive: 14.6 µM [inhibitor, partial curve]
18 | O=C(Nc1ccccc1-c1ccccc1)c1ccc(NC(=O)c2ccco2)cc1 | inconclusive: 20.6 µM [inhibitor, single point]
19 | COc1ccc(C(=O)NCC2(c3ccccc3)CCOCC2)cc1[N+](=O)[O-] | inactive
20 | Cc1cc(C(=O)CCl)c(C)n1-c1c(C)n(C)n(-c2ccccc2)c1=O | inconclusive: 18.3 µM [inhibitor, partial curve, poor fit]
21 | CC(=O)Nc1ccc(N=Cc2c(O)c(C(=O)Nc3ccccc3)cc3ccccc23)cc1 | inconclusive: 29.1 µM [inhibitor, single point]
22 | COc1ccc(OC)c(NC(=O)C(=O)NNC(=O)C23CC4CC(CC(C4)C2)C3)c1 | active: 29.1 µM
23 | Cc1cc(C(=O)NNC(=O)c2sccc2C)c(C)o1 | inconclusive: 16.4 µM [activator, partial curve]

Looked up by compound from the list above, two records:
Row | Compound | Potency
20 | Cc1cc(C(=O)CCl)c(C)n1-c1c(C)n(C)n(-c2ccccc2)c1=O | inconclusive: 18.3 µM [inhibitor, partial curve, poor fit]
23 | Cc1cc(C(=O)NNC(=O)c2sccc2C)c(C)o1 | inconclusive: 16.4 µM [activator, partial curve]

Later entries.

Row | Compound | Potency
24 | Oc1ccc(Cl)cc1CNCc1cccc2ccccc12 | inactive
25 | O=C(O)c1cnn(-c2nc(-c3ccc(F)cc3)cs2)c1C(F)(F)F | inconclusive: 14.6 µM [activator, partial curve]
26 | CC(C)n1cc(NC(=O)COc2ccccc2Cl)cn1 | inactive
27 | Cc1cccc(NC(=S)NC2CCCC2)n1 | inconclusive: 23.1 µM [inhibitor, partial curve, poor fit]
28 | Cc1ccc(Nc2nc(-c3cccnc3)cs2)cc1C | inconclusive: 2.59 µM [activator, partial curve]
29 | CC[C@]12c3[nH]c4ccc(OC)cc4c3CCN1C(=O)C(CC(=O)NCCc1ccccn1)C[C@@H]2C(=O)N1CCN(C(=O)c2ccco2)CC1 (stereo partly specified) | inconclusive: 18.3 µM [activator, partial curve]
30 | Cc1ccccc1N1CC(O)(c2cccs2)[N+]2=C1CCCC2 (stereo unspecified) | inconclusive: 32.6 µM [inhibitor, single point]
31 | Cc1cccc(-n2cc(CN3CCN(c4ccccn4)CC3)c(-c3cccc(F)c3)n2)c1 | inactive
32 | CCCN(CCC)C(=O)CC(c1ccccc1)c1cc(C)ccc1O (stereo unspecified) | inconclusive: 20.6 µM [inhibitor, single point]
33 | Cc1cc(Oc2ccccc2)nc(NCc2ccccc2)n1 | inactive
34 | CCn1c(=O)cc(SCC(=O)Nc2ccc(OC)c(OC)c2)c2ccccc21 | inconclusive: 29.1 µM [inhibitor, single point]
35 | CCOc1cccc(CN2CCCC(C(=O)c3cccc(C(F)(F)F)c3)C2)c1O (stereo unspecified) | inconclusive: 29.1 µM [inhibitor, partial curve, poor fit]
36 | CCN1C=CC2=C(C#N)C(N)C(C#N)(C#N)C(c3ccccc3C(F)(F)F)C2C1 (stereo unspecified) | inactive
37 | CC(Oc1ccc(Cl)cc1Cl)C(=O)NN=C1CCN(C)CC1 (stereo unspecified) | inactive
38 | O=C(NCc1ccccn1)c1ccc([N+](=O)[O-])cc1 | inactive
39 | CCC(C)(C)n1nnnc1C(c1ccc(C)cc1)N1CCN(C(=O)c2ccco2)CC1 (stereo unspecified) | inactive
40 | Cn1nc(C(F)(F)F)c(C#N)c1N1CCN(c2ccc(F)cc2)CC1 | active: 10.3 µM
41 | CCSc1nnc(-c2cccs2)o1 | inconclusive: 16.4 µM [activator, partial curve]
42 | Cc1nc(CN2CCN(Cc3nc(C(c4ccccc4)c4ccccc4)no3)CC2)cs1 | inactive
43 | CC(C)C1Cc2c(sc3[nH]c(=S)n(Cc4ccccc4)c(=O)c23)CO1 (stereo unspecified) | inactive
44 | O=C(O)c1ccccc1NC(=O)c1cc2ccccc2oc1=O | inconclusive: 14.6 µM [activator, partial curve]
45 | C=CCn1c(SCC(N)=O)nnc1-c1cccc(Br)c1 | inactive
46 | COc1cccc(N2CCN(S(=O)(=O)c3ccc4c(c3)oc(=O)n4C)CC2)c1 | inactive
